# Laboratory results published in patent US12442827B2 (UNIVERSITY OF NORTH TEXAS HEALTH SCIENCE CENTER AT FORT …, priority 2019, dated 2025).
# At least one compound was matched to its structure with a doubt left.
# Legend:
# HCFs = experiment: LH/FSH ratio in 3D constructs after DHEA, Estrone, Estriol stimulation (Western blot); assay type: cell-based, human; settings: HCFs (cells from Healthy individuals), 4 weeks, FIGS. 9A to 9C
# Text: (§1) In FIGS. 9A to 9C, healthy corneas were obtained from the National Disease Research Interchange (NDRI). KC corneas were obtained from individuals immediately following corneal transplantation. Inclusion/exclusion criteria for healthy controls required absence of ophthalmic disease, diabetes, or infectious conditions. Tissue from KC patients who had previously undergone collagen crosslinking was excluded. Corneal stromal cells were isolated from healthy (HCFs) and KC (HKCs) corneas. Both HCFs and HKCs were isolated as previously described. Briefly, using a surgical scalpel, the corneal epithelium and endothelium were removed. The corneal stroma was then washed in sterile PBS, cut into small pieces (approximately 2×2 mm), and placed into flasks; the cells were then allowed to adhere. […]
# (§2) All cultures were collected and washed twice with PBS, and total protein was isolated using 1× radioimmunoprecipitation assay (RIPA) buffer (50 mM Tris pH 8, 150 mM NaCl, 1% Triton X-100, and 0.1% SDS) containing a protease inhibitor cocktail (Sigma-Aldrich, St. Louis, MO, USA). Cell lysates were centrifuged at 4° C., and the supernatant was isolated and subjected to a Pierce BCA Protein assay (ThermoScientific, Rockford, IL, USA) for protein concentration quantification. […] Results were analyzed by normalizing values to the expression of housekeeping antibody β-Actin (Abcam, Cambridge, MA, USA).
# HKCs = experiment: as above; assay type: cell-based, human; settings: HKCs (cells from Keratoconus patients), 4 weeks, FIGS. 9A to 9C
# Text: as §1, §2
smiles,measurement,setting,value
C[C@]12CC[C@@H]3c4ccc(O)cc4CC[C@H]3[C@@H]1CCC2=O [Estrone],LH/FSH ratio modulated in vitro,HCFs,moving towards a disease-phenotype
same,LH/FSH ratio modulated in vitro,HKCs,“recovering” towards a healthy phenotype
